Data on 8 sequences can be found in paper PMC12143592, “Bacterial RecD2 is a processive single-stranded DNA translocase with strand-switching capacity at DNA forks” (Nucleic Acids Research, 2025).

This data set deals with T1, RecD2 (His-tagged) (Bacillus subtilis) (UniProt O34481).
T1 sequence (looked up, limits assumed): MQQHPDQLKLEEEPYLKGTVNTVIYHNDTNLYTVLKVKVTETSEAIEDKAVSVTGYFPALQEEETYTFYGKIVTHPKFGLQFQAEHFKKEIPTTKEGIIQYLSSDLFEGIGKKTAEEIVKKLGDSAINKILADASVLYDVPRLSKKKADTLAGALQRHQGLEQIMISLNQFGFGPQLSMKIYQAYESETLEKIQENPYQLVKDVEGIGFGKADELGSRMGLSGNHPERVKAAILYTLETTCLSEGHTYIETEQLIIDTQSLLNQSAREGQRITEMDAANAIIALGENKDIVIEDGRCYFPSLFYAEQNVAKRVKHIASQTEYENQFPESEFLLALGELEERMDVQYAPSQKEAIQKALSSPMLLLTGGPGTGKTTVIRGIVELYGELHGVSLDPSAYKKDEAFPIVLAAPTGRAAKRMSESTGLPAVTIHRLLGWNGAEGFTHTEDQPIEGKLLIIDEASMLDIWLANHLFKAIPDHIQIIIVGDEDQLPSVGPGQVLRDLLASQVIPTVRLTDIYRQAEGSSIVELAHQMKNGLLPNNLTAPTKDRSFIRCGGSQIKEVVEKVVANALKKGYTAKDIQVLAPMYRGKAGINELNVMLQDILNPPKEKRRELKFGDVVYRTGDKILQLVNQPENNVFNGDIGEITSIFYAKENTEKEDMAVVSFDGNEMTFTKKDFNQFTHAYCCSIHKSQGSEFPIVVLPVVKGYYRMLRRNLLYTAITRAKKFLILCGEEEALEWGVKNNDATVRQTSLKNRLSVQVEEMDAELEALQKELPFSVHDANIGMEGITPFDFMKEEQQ
As to the kind of experiment: EMSA. The note with it: 2 mM MgCl2 (or 10 mM), 15 min 37 C, then 0.05% glutaraldehyde 15 min 37 C, 8% PAGE, recombinant protein, protein details: 6xHis (not removed), label: 32P. (In EMSA bound probe runs differently from free probe, usually more slowly.)

Where [1] appears, read: 2 mM MgCl2, 1 mM ATPgS, value given for dT40-80, EMSA: 0.25 nM 32P-DNA, single-stranded DNA.
Where [2] appears, read: 2 mM MgCl2, 1 mM ATPgS, weaker than fork 30-30, similar to tailed duplexes, EMSA: 0.25 nM 32P-DNA.

The exact form of at least one protein or probe is not confirmed. Weaker means in comparison with the reference protein, sequence or condition of that experiment. Tags and fusion partners may be left off the protein sequences shown.

On to “TTTTTTTTTTTTTTTTTTTTTTTTTTTTTTTTTTTTTTTTTTTTTTTTTTTTTTTTTTTTTTTTTTTTTTTTTTTTTTTT [poly(dT)80]”, for which, under setting [1], the half-maximal binding is 3 nM.

Consider TTTTTTTTTTTTTTTTTTTT [poly(dT)20], for which the half-maximal binding (2 mM MgCl2, 1 mM ATPgS, affinity stated as low, EMSA: 0.25 nM 32P-DNA, single-stranded DNA) was over 50 nM.

With “ACGGCCTAGAACGGCCTAGAACGGCCTAGATCGTGAACCTGCAGGTAAGGGGCTGCTCATCGTAGGTTAGCGTAAATTAG [80-nt random ssDNA (17-M-80)]”, where the note is “no ATPgS, EMSA: 0.25 nM 32P-DNA, 1 mM ATPgS, single-stranded DNA”, the binding result is recorded as “binds more weakly”.

In the case of “TTTTTTTTTTTTTTTTTTTTTTTTTTTTTTTTTTTTTTTTTTTTTTTTTTTTTTTTTTTT [poly(dT)60]”, the half-maximal binding (2 mM MgCl2, 1 mM ATPgS, value given for dT40-80, three complexes, EMSA: 0.25 nM 32P-DNA, single-stranded DNA) is 3 nM.

In the case of “ACGGCCTAGATCGTGAACCTGCAGGTAAGGGGCTGCTCATCGTAGGTTAGCGTAAATTAG / GTGCCTTGCTAGGACATCAGTCGTAGGATACCTTACCTGCAGGTTCACGATCTAGGCCGT / TATCCTACGACTGATGTCCTAGCAAGGCAC [3'-tailed replicated fork]”, the binding result under setting [2] was “binds more weakly”.

With “TTTTTTTTTTTTTTTTTTTTTTTTTTTTTTTTTTTTTTTT [poly(dT)40]”, under setting [1], the half-maximal binding stood at 3 nM.

Turning to “ACGGCCTAGATCGTGAACCTGCAGGTAAGGGGCTGCTCATCGTAGGTTAGCGTAAATTAG / GTGCCTTGCTAGGACATCAGTCGTAGGATACCTTACCTGCAGGTTCACGATCTAGGCCGT [fork 30-30]”, the half-maximal binding (2 mM MgCl2, 1 mM ATPgS, EMSA: 0.25 nM 32P-DNA) came to 2 nM.

Consider “ACGGCCTAGATCGTGAACCTGCAGGTAAGGGGCTGCTCATCGTAGGTTAGCGTAAATTAG / GTGCCTTGCTAGGACATCAGTCGTAGGATACCTTACCTGCAGGTTCACGATCTAGGCCGT / CTAATTTACGCTAACCTACGATGAGCAGCC [5'-tailed replicated fork]”, for which the binding result under setting [2] is “binds more weakly”.
